In publication PMC4694870:
No constants are given. Whether binding was seen depends on the method and setting. Binding seen in cells or lysates may run through a third protein. Some results given as binding are weak or reduced against the parent protein; the word gives no strength. Where a sequence is shown, tags or fusion partners need not be part of it.

Chains of the proteins cited; added tags and fusions are not shown. Lines headed by an entry give the natural chain unless they say otherwise; changes in a name come on top. Residues count along the entry.
UniProt Q00987: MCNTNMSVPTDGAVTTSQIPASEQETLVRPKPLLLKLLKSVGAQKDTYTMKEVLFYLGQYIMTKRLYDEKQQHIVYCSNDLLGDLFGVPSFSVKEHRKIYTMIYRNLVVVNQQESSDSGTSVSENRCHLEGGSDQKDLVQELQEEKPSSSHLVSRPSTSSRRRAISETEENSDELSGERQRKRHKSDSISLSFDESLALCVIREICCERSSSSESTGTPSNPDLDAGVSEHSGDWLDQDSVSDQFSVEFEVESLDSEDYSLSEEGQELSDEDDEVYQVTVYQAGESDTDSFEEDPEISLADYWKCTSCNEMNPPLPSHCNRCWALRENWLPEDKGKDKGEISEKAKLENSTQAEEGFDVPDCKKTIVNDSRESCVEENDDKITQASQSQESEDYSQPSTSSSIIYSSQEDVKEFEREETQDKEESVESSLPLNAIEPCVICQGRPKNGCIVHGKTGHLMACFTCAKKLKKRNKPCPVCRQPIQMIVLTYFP
GST-Mdm2 61-491 fragment: residues 61-491 of Q00987

Experiments:
GST-Mdm2 61-491 fragment = GST-Mdm2 61-491 fragment (UniProt Q00987); assay: pull-down; 20 ug of recombinant GST-Mdm2 fusion proteins on glutathione beads incubated for 3 hours with 1 mg of nuclear extract of HEK293T cells transfected with Flag-Set7/9; washes in PBS; western blotting with Set7/9 antibody; only the target purified
[1] = molecular target: GST-Mdm2 (full-length version) (UniProt Q00987); assay: as above

- binding (GST-Mdm2 61-491 fragment): binds weakly
- binding [1]: binds
B1: Flag-Set7/9 (enzyme, UniProt Q8WTS6 1-366)
chain: MDSDDEMVEEAVEGHLDDDGLPHGFCTVTYSSTDRFEGNFVHGEKNGRGKFFFFDGSTLEGYYVDDALQGQGVYTYEDGGVLQGTYVDGELNGPAQEYDTDGRLIFKGQYKDNIRHGVCWIYYPDGGSLVGEVNEDGEMTGEKIAYVYPDERTALYGKFIDGEMIEGKLATLMSTEEGRPHFELMPGNSVYHFDKSTSSCISTNALLPDPYESERVYVAESLISSAGEGLFSKVAVGPNTVMSFYNGVRITHQEVDSRDWALNGNTLSLDEETVIDVPEPYNHVSKYCASLGHKANHSFTPNCIYDMFVHPRFGPIKCIRTLRAVEADEELTVAYGYDHSPPGKSGPEAPEWYQVELKAFQATQQK
